Results from patent US9598297B2, “Method for treating organic-matter-containing water” (KURITA WATER INDUSTRIES LTD., priority 2009, dated 2017).

Test system: slime
Experiment: Effect of inhibiting increase in pressure difference between modules of the RO membrane separation device

## [Na+].[O-]Cl [Comparative Example 2, NaClO]
Flow Days 1
  Pressure Difference between Modules: 0.02 MPa
Flow Days 7
  Pressure Difference between Modules: 0.025 MPa
Flow Days 30
  Pressure Difference between Modules: 0.03 MPa
Flow Days 60
  Pressure Difference between Modules: 0.14 MPa
